{"source": "PubChem BioAssay AID504793 (Drosophila RNAi Screening Center, 2011)", "test": "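Whole-genome screen for parts of the DNA damage checkpoint at G2/M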 (primary screen)", "cell system": "Drosophila S2R+ cells", "knock-down reagent": "long dsRNA against Drosophila genes, about 0.25 µg dsRNA per well", "time to read-out": "4 days of dsRNA, then 4 hours of drug before read-out", "challenge": "doxorubicin 0.5 µM for 4 hours to cause double-strand breaks, in cells also given a low, harmless dose of dsRNA against nbs to sensitise the assay", "detection": "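Mitotic index as the number of phospho-histone H3-positive cells in each well following doxorubicin, given as raw counts without normalisation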", "reading the numbers": "mitotic cells: higher = more cells in mitosis, weaker G2 arrest", "call rule": "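Genes are called active only when high mitotic counts were reproduced with independent dsRNAs and mitosis was checked for delay without damage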", "meaning of the calls": "active = confirmed in follow-up tests; inactive = not confirmed", "note": "In all, the deposit lists about 23,000 reagents; below is an unselected part of those that have a named target and a result. Over the whole deposit, 62 (0.27%) were called active. 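Calls come from follow-up tests whose scores are not deposited, so confirmed genes may have low counts here; counts are not normalised per plate.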 Raw values are not corrected between plates. No sequences are given here."}
{"predicted target": "rig", "amplicon": "DRSC06053", "mitotic cells, replicate 1": 4, "Call": "inactive"}
{"predicted target": "rig", "amplicon": "DRSC06400", "mitotic cells, replicate 1": 7, "Call": "inactive"}
{"predicted target": "CG32718", "amplicon": "DRSC17538", "mitotic cells, replicate 1": 9, "Call": "inactive"}
{"predicted target": "CG8768", "amplicon": "DRSC07259", "mitotic cells, replicate 1": 3, "Call": "inactive"}
{"predicted target": "CG15317", "amplicon": "DRSC18005", "mitotic cells, replicate 1": 11, "Call": "inactive"}
{"predicted target": "CG15317", "amplicon": "DRSC25924", "mitotic cells, replicate 1": 6, "Call": "inactive"}
{"predicted target": "CG32276", "amplicon": "DRSC08027", "mitotic cells, replicate 1": 13, "Call": "inactive"}
{"predicted target": "CG12479", "amplicon": "DRSC19459", "mitotic cells, replicate 1": 9, "Call": "inactive"}
{"predicted target": "dgt5", "amplicon": "DRSC07280", "mitotic cells, replicate 1": 101, "Call": "inactive"}
{"predicted target": "dgt5", "amplicon": "DRSC29379", "mitotic cells, replicate 1": 28, "Call": "inactive"}
{"predicted target": "CG5762", "amplicon": "DRSC15869", "mitotic cells, replicate 1": 11, "Call": "inactive"}
{"predicted target": "CG15651", "amplicon": "DRSC04242", "mitotic cells, replicate 1": 5, "Call": "inactive"}
{"predicted target": "Chd1", "amplicon": "DRSC00745", "mitotic cells, replicate 1": 5, "Call": "inactive"}

Reformatted: 2 of the entries above.
predicted target,amplicon,"mitotic cells, replicate 1",Call
CG32718,DRSC17538,9,inactive
CG8768,DRSC07259,3,inactive

Continued.
{"predicted target": "SH3PX1", "amplicon": "DRSC11139", "mitotic cells, replicate 1": 3, "Call": "inactive"}
{"predicted target": "L", "amplicon": "DRSC06666", "mitotic cells, replicate 1": 6, "Call": "inactive"}
{"predicted target": "L", "amplicon": "DRSC06668", "mitotic cells, replicate 1": 14, "Call": "inactive"}
{"predicted target": "L", "amplicon": "DRSC29770", "mitotic cells, replicate 1": 3, "Call": "inactive"}
{"predicted target": "CG7483", "amplicon": "DRSC16249", "mitotic cells, replicate 1": 6, "Call": "inactive"}
{"predicted target": "CG7483", "amplicon": "DRSC22432", "mitotic cells, replicate 1": 16, "Call": "inactive"}
{"predicted target": "CG7483", "amplicon": "DRSC26402", "mitotic cells, replicate 1": 3, "Call": "inactive"}
{"predicted target": "CG7755", "amplicon": "DRSC07040", "mitotic cells, replicate 1": 8, "Call": "inactive"}
{"predicted target": "CG3594", "amplicon": "DRSC04393", "mitotic cells, replicate 1": 4, "Call": "inactive"}
{"predicted target": "CG3594", "amplicon": "DRSC21959", "mitotic cells, replicate 1": 12, "Call": "inactive"}
